The list is a part of this screen's results and no random one: it is rich in T/C values a quarter to a half above the control, in often repeated tests (any T/C) and in doses without a T/C. Other doses and runs of a compound stand elsewhere. T/C: endpoint of the treated group in % of that of the vehicle group. Some entries give survivors of the animals treated and no T/C: the source files T/C as zero there, which appears to mark a toxic dose or a test without result, not a measured value. Counts of survivors are from the toxicity check (mostly the fifth day) where no day follows; animals may have died later. Schedules are NCI's codes, taken here to give the interval after Q, in days (D) or hours (H), and the number of doses after X. For survival time, this PubChem deposit counts one and a half times the control or more as active, and values a quarter to a half above the control carry no call in these data; other NCI protocols may use other cut-offs. Some T/C values are followed by the survivors on the day toxicity was checked, most often the fifth; where none is given, no animal had died by that day. Some entries hold several experiments; the results are listed from low to high. Additions like (4×) give the number of equal values in this list. Some schedules carry Z or #; the key to these is not given.
Tested on: L1210 leukemia ip in BDF1 mice, survival T/C
Experiment: NCI In Vivo Anticancer Drug Screen. Data for tumor model L1210 Leukemia (intraperitoneal) in B6D2F1 (BDF1) mice
Settings: higher T/C = longer survival

OCC1OC(n2cnc3c(=S)nc[nH]c32)C(O)C1O (stereo not given)
T/C (T/C endpoint: mean survival time, dose: 20.0 mg/kg/injection, schedule: Q01DX009 (ip), vehicle: saline): 125 and 133 % of control
T/C (T/C endpoint: mean survival time, dose: 20.0 mg/kg/injection, schedule: Q01DX010 (ip), vehicle: saline): 133 % of control
T/C (T/C endpoint: mean survival time, dose: 37.5 mg/kg/injection, schedule: Q01DX009 (ip), vehicle: water): 147 % of control
T/C (T/C endpoint: mean survival time, dose: 40.0 mg/kg/injection, schedule: Q01DX009 (ip), vehicle: saline): 125, 128, 138, 140 % of control
T/C (T/C endpoint: mean survival time, dose: 40.0 mg/kg/injection, schedule: Q01DX010 (ip), vehicle: saline): 125 and 141 % of control
T/C (T/C endpoint: mean survival time, dose: 50.0 mg/kg/injection, schedule: Q01DX015 (ip), vehicle: carboxymethylcellulose (CMC)): 149 % of control
T/C (T/C endpoint: mean survival time, dose: 56.0 mg/kg/injection, schedule: Q03HX024 (ip), vehicle: clinical formulation): 142 % of control
T/C (T/C endpoint: mean survival time, dose: 56.0 mg/kg/injection, schedule: Q03HX024 (ip), vehicle: saline): 140 % of control
T/C (T/C endpoint: mean survival time, dose: 71.5 mg/kg/injection, schedule: Q01DX Z (ip), vehicle: carboxymethylcellulose (CMC)): 132 % of control
T/C (T/C endpoint: mean survival time, dose: 73.0 mg/kg/injection, schedule: Q01DX Z (ip), vehicle: carboxymethylcellulose (CMC)): 137 % of control
T/C (T/C endpoint: mean survival time, dose: 75.0 mg/kg/injection, schedule: Q01DX009 (ip), vehicle: water, evaluated on day 5): 137 % of control
T/C (T/C endpoint: mean survival time, dose: 75.0 mg/kg/injection, schedule: Q01DX009 (ip), vehicle: water, evaluated on day 6): 139 % of control
T/C (T/C endpoint: mean survival time, dose: 75.0 mg/kg/injection, schedule: Q01DX009 (ip), vehicle: water, evaluated on day 30): 137 and 139 % of control
T/C (T/C endpoint: mean survival time, dose: 75.0 mg/kg/injection, schedule: Q03HX024 (ip), vehicle: saline): 139 and 144 % of control
T/C (T/C endpoint: mean survival time, dose: 80.0 mg/kg/injection, schedule: Q01DX009 (ip), vehicle: saline): 138, 140, 142, 150 % of control
T/C (T/C endpoint: mean survival time, dose: 80.0 mg/kg/injection, schedule: Q01DX010 (ip), vehicle: saline): 141 and 144 % of control
T/C (T/C endpoint: mean survival time, dose: 83.0 mg/kg/injection, schedule: Q03HX024 (ip), vehicle: clinical formulation): 142 % of control
T/C (T/C endpoint: mean survival time, dose: 83.0 mg/kg/injection, schedule: Q03HX024 (ip), vehicle: saline): 134 % of control
T/C (T/C endpoint: mean survival time, dose: 100.0 mg/kg/injection, schedule: Q01DX005 (ip), vehicle: saline): 125, 127, 132, 134 % of control
T/C (T/C endpoint: mean survival time, dose: 100.0 mg/kg/injection, schedule: Q01DX009 (ip), vehicle: saline): 104, 111 [5 of 6 alive], 112, 115 [5 of 6 alive], 117, 118, 120, 122 [5 of 6 alive], 144, 148 % of control
T/C (T/C endpoint: mean survival time, dose: 100.0 mg/kg/injection, schedule: Q01DX015 (ip), vehicle: carboxymethylcellulose (CMC)): 144 % of control
T/C (T/C endpoint: mean survival time, dose: 125.0 mg/kg/injection, schedule: Q01DX015 (ip), vehicle: carboxymethylcellulose (CMC)): 141 % of control [8 of 10 alive]
T/C (T/C endpoint: mean survival time, dose: 125.0 mg/kg/injection, schedule: Q03HX024 (ip), vehicle: clinical formulation): 147 % of control
T/C (T/C endpoint: mean survival time, dose: 143.0 mg/kg/injection, schedule: Q01DX Z (ip), vehicle: carboxymethylcellulose (CMC)): 141 % of control (2×)
T/C (T/C endpoint: mean survival time, dose: 146.0 mg/kg/injection, schedule: Q01DX Z (ip), vehicle: carboxymethylcellulose (CMC)): 145 % of control
T/C (T/C endpoint: mean survival time, dose: 150.0 mg/kg/injection, schedule: Q01DX009 (ip), vehicle: water, evaluated on day 5): 147 % of control
T/C (T/C endpoint: mean survival time, dose: 150.0 mg/kg/injection, schedule: Q01DX009 (ip), vehicle: water, evaluated on day 6): 139 % of control
T/C (T/C endpoint: mean survival time, dose: 150.0 mg/kg/injection, schedule: Q01DX009 (ip), vehicle: water, evaluated on day 30): 139 and 147 % of control
T/C (T/C endpoint: mean survival time, dose: 150.0 mg/kg/injection, schedule: Q01DX015 (ip), vehicle: carboxymethylcellulose (CMC)): 147 % of control
T/C (T/C endpoint: mean survival time, dose: 150.0 mg/kg/injection, schedule: Q01DX Z (ip), vehicle: carboxymethylcellulose (CMC)): 134 % of control
T/C (T/C endpoint: mean survival time, dose: 150.0 mg/kg/injection, schedule: Q03HX024 (ip), vehicle: saline): 135 and 142 % of control [9 of 10 alive]
T/C (T/C endpoint: mean survival time, dose: 160.0 mg/kg/injection, schedule: Q01DX009 (ip), vehicle: saline): 154, 156, 160, 164 % of control
T/C (T/C endpoint: mean survival time, dose: 178.75 mg/kg/injection, schedule: Q01DX Z (ip), vehicle: carboxymethylcellulose (CMC)): 142 % of control
T/C (T/C endpoint: mean survival time, dose: 200.0 mg/kg/injection, schedule: Q01DX005 (ip), vehicle: saline): 110, 114, 116, 118, 119, 121, 123 (2×), 125, 126, 127, 141, 149 % of control
T/C (T/C endpoint: mean survival time, dose: 200.0 mg/kg/injection, schedule: Q01DX009 (ip), vehicle: carboxymethylcellulose (CMC)): 140 % of control
T/C (T/C endpoint: mean survival time, dose: 200.0 mg/kg/injection, schedule: Q01DX009 (ip), vehicle: saline): 114, 121, 123, 128, 130 (2×), 136, 140 % of control
T/C (T/C endpoint: mean survival time, dose: 214.5 mg/kg/injection, schedule: Q01DX Z (ip), vehicle: carboxymethylcellulose (CMC)): 142 % of control
T/C (T/C endpoint: mean survival time, dose: 300.0 mg/kg/injection, schedule: Q01DX009 (ip), vehicle: water, evaluated on day 5): 149 % of control
T/C (T/C endpoint: mean survival time, dose: 300.0 mg/kg/injection, schedule: Q01DX009 (ip), vehicle: water, evaluated on day 6): 141 % of control
T/C (T/C endpoint: mean survival time, dose: 300.0 mg/kg/injection, schedule: Q01DX009 (ip), vehicle: water, evaluated on day 30): 141 and 150 % of control
T/C (T/C endpoint: mean survival time, dose: 300.0 mg/kg/injection, schedule: Q01DX Z (ip), vehicle: carboxymethylcellulose (CMC)): 147 % of control
T/C (T/C endpoint: mean survival time, dose: 300.0 mg/kg/injection, schedule: Q## X Z (ip), vehicle: carboxymethylcellulose (CMC)): 141 % of control [5 of 6 alive]
T/C (T/C endpoint: mean survival time, dose: 321.75 mg/kg/injection, schedule: Q01DX Z (ip), vehicle: carboxymethylcellulose (CMC)): 125 % of control
T/C (T/C endpoint: mean survival time, dose: 400.0 mg/kg/injection, schedule: Q01DX001 (ip), vehicle: alkali diluted with saline): 143 % of control
T/C (T/C endpoint: mean survival time, dose: 400.0 mg/kg/injection, schedule: Q01DX001 (ip), vehicle: carboxymethylcellulose (CMC)): 130 % of control
T/C (T/C endpoint: mean survival time, dose: 400.0 mg/kg/injection, schedule: Q01DX005 (ip), vehicle: saline): 112, 121, 125, 128, 131, 132, 135, 142 % of control
T/C (T/C endpoint: mean survival time, dose: 400.0 mg/kg/injection, schedule: Q01DX009 (ip), vehicle: carboxymethylcellulose (CMC)): 132 % of control
T/C (T/C endpoint: mean survival time, dose: 400.0 mg/kg/injection, schedule: Q01DX009 (ip), vehicle: saline): 130, 137, 138, 144 (2×), 147, 149 [4 of 6 alive], 151, 168 % of control
T/C (T/C endpoint: mean survival time, dose: 440.0 mg/kg/injection, schedule: Q01DX001 (ip), vehicle: carboxymethylcellulose (CMC)): 127 % of control
T/C (T/C endpoint: mean survival time, dose: 600.0 mg/kg/injection, schedule: Q01DX001 (ip), vehicle: carboxymethylcellulose (CMC)): 130 % of control
T/C (T/C endpoint: mean survival time, dose: 670.0 mg/kg/injection, schedule: Q01DX001 (ip), vehicle: carboxymethylcellulose (CMC)): 143 % of control
T/C (T/C endpoint: mean survival time, dose: 800.0 mg/kg/injection, schedule: Q01DX001 (ip), vehicle: saline): 129 % of control
T/C (T/C endpoint: mean survival time, dose: 800.0 mg/kg/injection, schedule: Q01DX005 (ip), vehicle: saline): 121, 127 (2×), 128, 130, 132, 134, 146 % of control
T/C (T/C endpoint: mean survival time, dose: 800.0 mg/kg/injection, schedule: Q01DX009 (ip), vehicle: saline): 100 [5 of 6 alive], 128, 135, 137 [5 of 6 alive], 140, 141, 147, 150 % of control
T/C (T/C endpoint: mean survival time, dose: 900.0 mg/kg/injection, schedule: Q01DX001 (ip), vehicle: alkali diluted with saline): 129 % of control
T/C (T/C endpoint: mean survival time, dose: 1000.0 mg/kg/injection, schedule: Q01DX001 (ip), vehicle: carboxymethylcellulose (CMC)): 140 % of control
T/C (T/C endpoint: mean survival time, dose: 1200.0 mg/kg/injection, schedule: Q01DX001 (ip), vehicle: saline): 130 % of control
T/C (T/C endpoint: mean survival time, dose: 1500.0 mg/kg/injection, schedule: Q01DX001 (ip), vehicle: carboxymethylcellulose (CMC)): 147 % of control
T/C (T/C endpoint: mean survival time, dose: 1600.0 mg/kg/injection, schedule: Q01DX001 (ip), vehicle: saline): 129 % of control
T/C (T/C endpoint: mean survival time, dose: 1600.0 mg/kg/injection, schedule: Q01DX005 (ip), vehicle: saline): 96 [4 of 6 alive], 112 [4 of 6 alive], 114, 118, 121 [5 of 6 alive], 134 [5 of 6 alive], 138, 143 % of control
survivor count (T/C endpoint: mean survival time, dose: 2250.0 mg/kg/injection, schedule: Q01DX001 (ip), vehicle: carboxymethylcellulose (CMC)): 6 of 10
T/C (T/C endpoint: median survival time, dose: 50.0 mg/kg/injection, schedule: Q03HX024 (sc), vehicle: other): 133 % of control
T/C (T/C endpoint: median survival time, dose: 400.0 mg/kg/injection, schedule: Q01DX009 (ip), vehicle: other): 144 % of control
T/C (T/C endpoint: median survival time, dose: 400.0 mg/kg/injection, schedule: Q01DX009 (sc), vehicle: other): 144 % of control
T/C (T/C endpoint: median survival time, dose: 400.0 mg/kg/injection, schedule: Q03HX024 (sc), vehicle: other): 138 % of control
T/C (T/C endpoint: median survival time, dose: 800.0 mg/kg/injection, schedule: Q01DX009 (ip), vehicle: other): 144 % of control
T/C (T/C endpoint: median survival time, dose: 800.0 mg/kg/injection, schedule: Q01DX009 (sc), vehicle: other): 144 % of control
T/C (T/C endpoint: median survival time, dose: 1600.0 mg/kg/injection, schedule: Q01DX009 (ip), vehicle: other): 144 % of control
T/C (T/C endpoint: median survival time, dose: 1600.0 mg/kg/injection, schedule: Q01DX009 (sc), vehicle: other): 138 % of control
T/C (T/C endpoint: median survival time, dose: 1600.0 mg/kg/injection, schedule: Q04DX003 (ip), vehicle: other): 127 % of control
T/C (T/C endpoint: median survival time, dose: 1600.0 mg/kg/injection, schedule: Q04DX003 (sc), vehicle: other): 133 % of control
survivor count (T/C endpoint: median survival time, dose: 3200.0 mg/kg/injection, schedule: Q01DX001 (ip), vehicle: other): 3 of 8
T/C (T/C endpoint: median survival time, dose: 3200.0 mg/kg/injection, schedule: Q01DX001 (sc), vehicle: other): 133 % of control
survivor count (T/C endpoint: median survival time, dose: 3200.0 mg/kg/injection, schedule: Q01DX009 (ip), vehicle: other): 1 of 8
survivor count (T/C endpoint: median survival time, dose: 3200.0 mg/kg/injection, schedule: Q04DX003 (ip), vehicle: other): 3 of 8
